PubChem BioAssay AID504793, Drosophila RNAi Screening Center | 2011
Aim: 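Knock-downs allowing continued mitosis even though DNA is damaged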 (primary screen). System: Drosophila S2R+ cells. Knock-down reagent: long dsRNA against Drosophila genes, about 0.25 µg dsRNA per well. Timing: 4 days of dsRNA, then 4 hours of drug before read-out. Challenge: doxorubicin 0.5 µM for 4 hours to cause double-strand breaks, in cells also given a low, harmless dose of dsRNA against nbs to sensitise the assay. Read-out: 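Mitotic index as the number of phospho-histone H3-positive cells in each well following doxorubicin, given as raw counts without normalisation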. Direction: mitotic cells: higher = more cells in mitosis, weaker G2 arrest. Active means: 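Genes are called active only when high mitotic counts were reproduced with independent dsRNAs and mitosis was checked for delay without damage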. Calls: active = confirmed in follow-up tests; inactive = not confirmed.
The screen tested about 23,000 reagents; below is a random part of those with a known target gene and a result. In the full data, 62 (0.27%) got an active call. 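Calls come from follow-up tests whose scores are not deposited, so confirmed genes may have low counts here; counts are not normalised per plate.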 Raw values vary from plate to plate and are shown uncorrected. A plus sign joins genes that one reagent is predicted to hit.

target gene | amplicon | mitotic cells, replicate 1 | Outcome
Men-b (GeneID 43936) | DRSC16736 | 16 | inactive
CG8301 (GeneID 41160) | DRSC16405 | 4 | inactive
CG8301 (GeneID 41160) | DRSC28170 | 4 | inactive
mirr (GeneID 39441) | DRSC11369 | – | inactive
mirr (GeneID 39441) | DRSC25450 | 3 | inactive
CR32011 + CR32010 + PlexB + 1 more | DRSC21664 | 6 | inactive
CR32011 + CR32010 + PlexB + 1 more | DRSC26099 | 1 | inactive
CG13984 (GeneID 33879) | DRSC02316 | 6 | inactive
HINT1 (GeneID 33471) | DRSC26502 | 8 | inactive
nsl1 (GeneID 41911) | DRSC15625 | 28 | active
CG4424 (GeneID 42390) | DRSC15576 | 9 | inactive
CG11964 (GeneID 41068) | DRSC14447 | 6 | inactive
CG11964 (GeneID 41068) | DRSC25900 | 2 | inactive
CG12862 (GeneID 36625) | DRSC06202 | 14 | inactive
CG1409 (GeneID 31689) | DRSC17910 | 14 | inactive
CG1552 (GeneID 32035) | DRSC19665 | 7 | inactive
CG1552 (GeneID 32035) | DRSC25533 | 5 | inactive
CG6709 + Hez | DRSC10165 | 4 | inactive
CG6709 + Hez | DRSC10698 | 8 | inactive
CG33232 (retired record) (GeneID 2769004) | DRSC08187 | 8 | inactive
CG33232 (retired record) (GeneID 2769004) | DRSC08495 | 5 | inactive
nyo (GeneID 43716) | DRSC15029 | 10 | inactive
nyo (GeneID 43716) | DRSC15030 | 15 | inactive
CG17593 (GeneID 33573) | DRSC00504 | 3 | inactive
CG17593 (GeneID 33573) | DRSC27490 | 6 | inactive
Hsp67Ba (GeneID 39076) | DRSC11191 | 5 | inactive
Hsp67Ba (GeneID 39076) | DRSC23678 | 1 | inactive
PIG-U (GeneID 34185) | DRSC02193 | 11 | inactive
PIG-U (GeneID 34185) | DRSC28900 | 3 | inactive
CG13293 (GeneID 38695) | DRSC09967 | 6 | inactive
tra (GeneID 39849) | DRSC11405 | 3 | inactive
Trc8 (GeneID 43476) | DRSC15437 | 6 | inactive
Trc8 (GeneID 43476) | DRSC28575 | 9 | inactive
CG15044 (GeneID 32834) | DRSC19620 | 8 | inactive
CG15044 (GeneID 32834) | DRSC21385 | 3 | inactive
CG15044 (GeneID 32834) | DRSC28226 | 2 | inactive
CG44085 (GeneID 34732) | DRSC23040 | 10 | inactive
CG18542 + CG32939 | DRSC15342 | 4 | inactive
CG14965 (GeneID 38388) | DRSC08424 | 2 | inactive
gny (GeneID 34409) | DRSC02810 | 4 | inactive
CG11403 (GeneID 31072) | DRSC18532 | 5 | inactive
SF2 (GeneID 53443) | DRSC16845 | 22 | active
CG3191 (GeneID 31209) | DRSC18530 | 10 | inactive
CG3191 (GeneID 31209) | DRSC29390 | 3 | inactive
Nipped-A (GeneID 35483) | DRSC04883 | 4 | inactive
Nipped-A (GeneID 35483) | DRSC04884 | 4 | inactive
Nipped-A (GeneID 35483) | DRSC07738 | 6 | inactive
Nipped-A (GeneID 35483) | DRSC22386 | 5 | inactive
CG11200 (GeneID 37301) | DRSC06060 | 5 | inactive
CG11200 (GeneID 37301) | DRSC27196 | 9 | inactive
tous (GeneID 37582) | DRSC04464 | 4 | inactive
CaMKI (GeneID 43792) | DRSC17162 | 6 | inactive
CG9316 (GeneID 35333) | DRSC03195 | 1 | inactive
natalisin (GeneID 5740700) | DRSC14967 | 3 | inactive
natalisin (GeneID 5740700) | DRSC23390 | 6 | inactive
natalisin (GeneID 5740700) | DRSC26336 | 9 | inactive
CG13423 (GeneID 37315) | DRSC06386 | 3 | inactive
stj (GeneID 36526) | DRSC06124 | 7 | inactive
CG34427 (GeneID 5740165) | DRSC09978 | 3 | inactive
CDase (GeneID 43618) | DRSC14932 | 5 | inactive
CG13972 (GeneID 43307) | DRSC14715 | 14 | inactive
CG13972 (GeneID 43307) | DRSC26881 | 5 | inactive
CG13077 (GeneID 35252) | DRSC02181 | 9 | inactive
CG13337 (GeneID 36518) | DRSC06371 | 3 | inactive
CG13337 (GeneID 36518) | DRSC28309 | 4 | inactive
MAPk-Ak2 (GeneID 44573) | DRSC18678 | 16 | inactive
MAPk-Ak2 (GeneID 44573) | DRSC29642 | 6 | inactive
CG13896 (GeneID 38089) | DRSC08366 | 3 | inactive
CG13299 (GeneID 38724) | DRSC09973 | 6 | inactive
CG9331 (GeneID 35347) | DRSC03206 | 5 | inactive
CG9331 (GeneID 35347) | DRSC28815 | 3 | inactive
HHEX (GeneID 42495) | DRSC16186 | 11 | inactive
HHEX (GeneID 42495) | DRSC29035 | 7 | inactive
Nup75 (GeneID 37078) | DRSC06947 | 10 | inactive
Nup75 (GeneID 37078) | DRSC28056 | 4 | inactive
Ndae1 (GeneID 34005) | DRSC00975 | 10 | inactive
Ndae1 (GeneID 34005) | DRSC02770 | 15 | inactive
CG7011 (GeneID 39657) | DRSC09347 | 6 | inactive
CG7011 (GeneID 39657) | DRSC28334 | 5 | inactive
Mbs (GeneID 49070) | DRSC09414 | 6 | inactive
Mbs (GeneID 49070) | DRSC10525 | 7 | inactive
Mbs (GeneID 49070) | DRSC10553 | 2 | inactive
Mbs (GeneID 49070) | DRSC24459 | 3 | inactive
CG42726 + CG42727 | DRSC14485 | 5 | inactive
CG42726 + CG42727 | DRSC27155 | 3 | inactive
ZnT77C (GeneID 40271) | DRSC11766 | 1 | inactive
ZnT77C (GeneID 40271) | DRSC11767 | 2 | inactive
east (GeneID 46006) | DRSC18770 | 13 | inactive
east (GeneID 46006) | DRSC23626 | 3 | inactive
ifc (GeneID 33836) | DRSC03549 | 3 | inactive
Arp5 (GeneID 42173) | DRSC16350 | 6 | inactive
Arp5 (GeneID 42173) | DRSC28688 | 9 | inactive
CG31706 (GeneID 261621) | DRSC22704 | 6 | inactive
CG42553 (GeneID 38094) | DRSC08356 | 8 | inactive
CG14929 + CG4970 + CG14930 | DRSC02412 | 5 | inactive
CG11975 (GeneID 41074) | DRSC14452 | 5 | inactive
CG11367 (GeneID 40491) | DRSC22434 | 15 | inactive
fbl + CG33969 | DRSC27922 | 7 | inactive
CG5958 (GeneID 34022) | DRSC02915 | 2 | inactive
CheB53a (GeneID 3346205) | DRSC06625 | 11 | inactive
EMC7 (GeneID 36767) | DRSC07162 | 5 | inactive
ND-13B (GeneID 39214) | DRSC10643 | 3 | inactive
ND-13B (GeneID 39214) | DRSC29920 | 4 | inactive
CG3008 (GeneID 33693) | DRSC00560 | 6 | inactive
AspRS-m (GeneID 326155) | DRSC02646 | 7 | inactive
Rbp (GeneID 41880) | DRSC15724 | 9 | inactive
kto (GeneID 44830) | DRSC10983 | 2 | inactive
Crtc (GeneID 39970) | DRSC23130 | 5 | inactive
Crtc (GeneID 39970) | DRSC26174 | 7 | inactive
Sec20 (GeneID 40724) | DRSC12295 | 2 | inactive
Sec20 (GeneID 40724) | DRSC29886 | 4 | inactive
